In patent US20090275521A1:
Results are given in words; binding and its absence hold for the method and conditions named. For part of these data: In cells and extracts the contact can be indirect. Some entries that bind do so weakly or less than the wild type.

Amino acid sequences for entries named in this document (tags omitted). Residues count along the entry.
UniProt P30904, residues 2-115: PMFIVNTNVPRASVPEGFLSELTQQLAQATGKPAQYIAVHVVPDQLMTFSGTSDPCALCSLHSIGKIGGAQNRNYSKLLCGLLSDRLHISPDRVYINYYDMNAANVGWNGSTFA

Legend:
[1] = biological target: rat macrophage migration inhibitory factor (MIF) (rat) (UniProt P30904); experiment: immunoprecipitation of rat intraluminal fluid with anti-MIF, Western blot for α-1-I-3 (reducing NuPAGE)
[2] = biological target: rat macrophage migration inhibitory factor (MIF) (rat) (UniProt P30904); experiment: restatement of the co-immunoprecipitation result from rat intraluminal fluid
[3] = biological target: T1, human macrophage migration inhibitory factor (MIF) (human) (UniProt P14174); experiment: co-immunoprecipitation from human urine with anti-MIF, Western blot for ceruloplasmin (bands of 135 and 64 kDa)
T1 sequence (looked up): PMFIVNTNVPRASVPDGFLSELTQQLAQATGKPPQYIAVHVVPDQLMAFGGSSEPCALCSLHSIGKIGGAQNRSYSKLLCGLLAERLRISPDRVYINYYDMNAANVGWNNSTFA

Binder	binding [1]	binding [2]	binding [3]
alpha-1-inhibitor-3 (α-1-I-3) (protein, rat, UniProt P14046 25-1477, looked up) LNGNSKYMVLVPSQLYTETPEKICLHLYHLNETVTVTASLISQRGTRKLFDELVVDKDLFHCVSFTIPRLPSSEEEESLDINIEGAKHKFSERRVVLVKNKESVVFVQTDKPMYKPGQSVKFRVVSMDKNLHPLNELFPLAYIEDPKMNRIMQWQDVKTENGLKQLSFSLSAEPIQGPYKIVILKQSGVKEEHSFTVMEFVLPRFGVDVKVPNAISVYDEIINVTACATYTYGKPVPGHVKISLCHGNPTFSSETKSGCKEEDSRLDNNGCSTQEVNITEFQLKENYLKMHQAFHVNATVTEEGTGSEFSGSGRIEVERTRNKFLFLKADSHFRHGIPFFVKVRLVDIKGDPIPNEQVLIKARDAGYTNATTTDQHGLAKFSIDTNGISDYSLNIKVYHKEESSCIHSSCTAERHAEAHHTAYAVYSLSKSYIYLDTEAGVLPCNQIHTVQAHFILKGQVLGVLQQIVFHYLVMAQGSILQTGNHTHQVEPGESQVQGNFALEIPVEFSMVPVAKMLIYTILPDGEVIADSVKFQVEKCLRNKVHLSFSPSQSLPASQTHMRVTASPQSLCGLRAVDQSVLLQKPEAELSPSLIYDLPGMQDSNFIASSNDPFEDEDYCLMYQPIAREKDVYRYVRETGLMAFTNLKIKLPTYCNTDYDMVPLAVPAVALDSSTDRGMYESLPVVAVKSPLPQEPPRKDPPPKDPVIETIRNYFPETWIWDLVTVNSSGVTELEMTVPDTITEWKAGALCLSNDTGLGLSSVASFQAFQPFFVELTMPYSVIRGEAFTLKATVLNYLPTSLPMAVLLEASPDFTAVPVENNQDSYCLGANGRHTSSWLVTPKSLGNVNFSVSAEARQSPGPCGSEVATVPETGRKDTVVKVLIVEPEGIKKEHTFSSLLCASDAELSETLSLLLPPTVVKDSARAHFSVMGDILSSAIKNTQNLIQMPYGCGEQNMVLFAPNIYVLKYLNETQQLTEKIKSKALGYLRAGYQRELNYKHKDGSYSAFGDHNGQGQGNTWLTAFVLKSFAQARAFIFIDESHITDAFTWLSKQQKDSGCFRSSGSLLNNAMKGGVDDEITLSAYITMALLESSLPDTDPVVSKALSCLESSWENIEQGGNGSFVYTKALMAYAFALAGNQEKRNEILKSLDKEAIKEDNSIHWERPQKPTKSEGYLYTPQASSAEVEMSAYVVLARLTAQPAPSPEDLALSMGTIKWLTKQQNSYGGFSSTQDTVVALDALSKYGAATFSKSQKTPSVTVQSSGSFSQKFQVDKSNRLLLQQVSLPYIPGNYTVSVSGEGCVYAQTTLRYNVPLEKQQPAFALKVQTVPLTCNNPKGQNSFQISLEISYMGSRPASNMVIADVKMLSGFIPLKPTVKKLERLGHVSRTEVTTNNVLLYLDQVTNQTLSFSFIIQQDIPVKNLQPAIVKVYDYYETDEVAFAEYSSPCSSDDQNV	binds	binds	–
Ceruloplasmin (protein, human, UniProt P00450 20-1065, looked up) KEKHYYIGIIETTWDYASDHGEKKLISVDTEHSNIYLQNGPDRIGRLYKKALYLQYTDETFRTTIEKPVWLGFLGPIIKAETGDKVYVHLKNLASRPYTFHSHGITYYKEHEGAIYPDNTTDFQRADDKVYPGEQYTYMLLATEEQSPGEGDGNCVTRIYHSHIDAPKDIASGLIGPLIICKKDSLDKEKEKHIDREFVVMFSVVDENFSWYLEDNIKTYCSEPEKVDKDNEDFQESNRMYSVNGYTFGSLPGLSMCAEDRVKWYLFGMGNEVDVHAAFFHGQALTNKNYRIDTINLFPATLFDAYMVAQNPGEWMLSCQNLNHLKAGLQAFFQVQECNKSSSKDNIRGKHVRHYYIAAEEIIWNYAPSGIDIFTKENLTAPGSDSAVFFEQGTTRIGGSYKKLVYREYTDASFTNRKERGPEEEHLGILGPVIWAEVGDTIRVTFHNKGAYPLSIEPIGVRFNKNNEGTYYSPNYNPQSRSVPPSASHVAPTETFTYEWTVPKEVGPTNADPVCLAKMYYSAVEPTKDIFTGLIGPMKICKKGSLHANGRQKDVDKEFYLFPTVFDENESLLLEDNIRMFTTAPDQVDKEDEDFQESNKMHSMNGFMYGNQPGLTMCKGDSVVWYLFSAGNEADVHGIYFSGNTYLWRGERRDTANLFPQTSLTLHMWPDTEGTFNVECLTTDHYTGGMKQKYTVNQCRRQSEDSTFYLGERTYYIAAVEVEWDYSPQREWEKELHHLQEQNVSNAFLDKGEFYIGSKYKKVVYRQYTDSTFRVPVERKAEEEHLGILGPQLHADVGDKVKIIFKNMATRPYSIHAHGVQTESSTVTPTLPGETLTYVWKIPERSGAGTEDSACIPWAYYSTVDQVKDLYSGLIGPLIVCRRPYLKVFNPRRKLEFALLFLVFDENESWYLDDNIKTYSDHPEKVNKDDEEFIESNKMHAINGRMFGNLQGLTMHVGDEVNWYLMGMGNEIDLHTVHFHGHSFQYKHRGVYSSDVFDIFPGTYQTLEMFPRTPGIWLLHCHVTDHIHAGMETTYTVLQNEDTKSG	–	–	binds
